Measured values as given in PubChem BioAssay AID2685 (National Center for Advancing Translational Sciences (NCATS), 2010).
The other results are listed elsewhere or left out. The main result of the screen is listed elsewhere. These columns were measured beside it and carry no call. Most of these compounds were active or inconclusive in the main read-out, so they are no random draw. The note in brackets gives the kind of curve behind each potency; many fits are weak.

Assay: qHTS Assay for Lipid Storage Modulators in Drosophila S3 Cells;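 as to cell number change: cells counted by Cell Tracker Red CMTPX staining in the red channel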
Details: BODIPY lipid droplet fluorescence, 18-24 h; for cell number change: measured here: cell count max response, cells fed with added oleic acid
In short: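 Drosophila S3 cells loaded with oleic acid (400 uM, as added) and compounds at several concentrations; lipid droplets imaged by 488-nm laser-scanning cytometry, 500–530 nm intensity and object ratio to cell channel. Percent activity normalized to 20 uM Triacsin C.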

[1] = measured here: lipid fluorescence (Fed channel) AC50, cells fed with added oleic acid
[2] = measured here: cell number channel AC50, cells fed with added oleic acid

Row | Structure (SMILES) | cell number change | AC50 [1] | AC50 [2]
1 | CC(C)CC1C2C(=O)N(c3ccccc3)C(=O)C2ON1c1ccccc1 (configuration not stated) | -11.5% | 0.517 µM [falling, full curve] | 
2 | CCOC(=O)c1nn(-c2ccccc2C)c(=O)c2c(N)scc12 | 18.4% |  | 
3 | O=C(NC1CCCC1)C1CCN(C(=O)c2ccccc2Cl)CC1 | 13.4% |  | 
4 | CCC(C(=O)NC1CCCC1)N(C(=O)Cn1nnc(-c2ccc(C)o2)n1)c1ccc(F)cc1 (configuration not stated) | 18.1% | 6.51 µM [falling, single point] | 
5 | CCc1ccc(OCC(=O)N(Cc2ccccc2)C2CCS(=O)(=O)C2)cc1 (configuration not stated) | 6.25% |  | 
6 | Cc1ccc(/C=C2\SC(N3CCN(C(c4ccccc4)c4ccccc4)CC3)=NC2=O)o1 |  | 6.51 µM [rising, partial curve, poor fit] | 6.51 µM [rising, partial curve, poor fit]
7 | COc1ccc(CCNS(=O)(=O)c2cn(C)c(=O)n(C)c2=O)cc1OC |  | 0.092 µM [falling, full curve] | 
8 | O=[N+]([O-])c1ccc2c(c1)ncn2-c1ccccc1 | 9.69% | 29.1 µM [rising, single point] | 
9 | CN1CCc2c(sc(NC(=O)c3cc4cc([N+](=O)[O-])ccc4s3)c2C(N)=O)C1 | -76.3% | 9.2 µM [falling, partial curve] | 10.3 µM [falling, partial curve]
10 | Brc1ccc(OCc2cn3ccccc3n2)cc1 | -45.9% |  | 
11 | COc1ccc2oc(C(=O)Nc3ccc(N4CCOCC4)cc3)c(C)c2c1 | 19.4% | 29.1 µM [rising, single point] | 
12 | Cc1ccc(C(=O)N2CCN(c3ncccn3)CC2)cc1S(=O)(=O)N1CCCCC1 | 21.7% | 0.146 µM [falling, full curve, poor fit] | 
13 | O=C(NC(=S)Nc1cccc(NC(=O)c2ccc(Cl)cc2Cl)c1)c1cccs1 | 1.58% | 25.9 µM [rising, partial curve, poor fit] | 
14 | COc1ccc(CNCC(O)COCc2cccs2)cc1 (configuration not stated) | 5.42% | 16.4 µM [falling, single point] | 
15 | CCOc1ccc(CCNC(=O)C2CCCN(S(C)(=O)=O)C2)cc1OCC (configuration not stated) | 9.15% | 5.8 µM [rising, single point] | 
16 | CCc1ccccc1NC(=O)CN(C)C(=O)COC(=O)c1ccccc1Cl | 30.5% | 0.146 µM [falling, full curve, poor fit] | 0.116 µM [falling, full curve, poor fit]
17 | O=C(CCNC(=O)c1ccc([N+](=O)[O-])cc1)Nc1cccc(S(=O)(=O)N2CCOCC2)c1 | 0.251% | 7.31 µM [rising, partial curve] | 
18 | COc1ccc(NC(=O)NC2CCN(C(C)C)CC2)c(OC)c1 | 15.1% |  | 
19 | CCN1CCN(C(=S)Nc2ccsc2C(=O)OC)CC1 | -26.1% |  | 
20 | Oc1ccc(/C=N/N2CCN(Cc3ccccc3)CC2)cc1 | 7.66% | 29.1 µM [rising, single point] | 
21 | COc1cc(OC)c(OC)cc1CNC(=O)c1cc(S(=O)(=O)N2CCOCC2)ccc1F | -31.5% | 29.1 µM [falling, single point] | 

Row | Structure (SMILES) | cell number change | AC50 [1] | AC50 [2]
22 | O=C(CN1CCCCC1)N1CCCc2c1c(=O)oc1ccc(OCc3ccccc3)cc21 | -30.6% | 29.1 µM [falling, single point] | 23.1 µM [falling, single point]
23 | COC(=O)c1cc(C(=O)Nc2ccc(S(N)(=O)=O)cc2)cc([N+](=O)[O-])c1 | 15% |  | 
24 | CC(NC(=O)c1ccc2c(c1)OCO2)C(c1cccs1)N1CCN(c2ccccc2)CC1 (configuration not stated) | 9.71% | 29.1 µM [rising, single point] | 
25 | Cc1ccc(CNC(=O)c2nnc(CS(=O)(=O)c3ccccc3)o2)cc1 | 20.2% |  | 
26 | COC(=O)CCc1c(C)[nH]c(=S)[nH]c1=O | 31.8% |  | 0.00411 µM [rising, full curve, poor fit]
27 | CCOC(=O)C1CCN(C(=O)Nc2c(-c3ccccc3)noc2C)CC1 | -27.2% | 7.31 µM [falling, partial curve] | 
28 | CCCN(Cc1nnc(-c2ccccc2Cl)o1)C(=O)c1cc(S(=O)(=O)N2CCOCC2)ccc1F | -50% | 0.651 µM [falling, partial curve, poor fit] | 29.1 µM [falling, single point]
29 | CSCCC(N=C(NS(=O)(=O)c1ccccc1)c1ccccc1)C(=O)O (configuration not stated) | -38.8% |  | 0.517 µM [falling, full curve]
30 | CCN1CCc2nc(NC(=O)c3ccccc3)sc2C1 | 12.6% |  | 
31 | O=C(/C=C1\SC(=O)NC1=O)Nc1ccc(F)cc1 | 18.6% |  | 
32 | CC(C)(C)NC(=O)C1CCC(C)(C(=O)O)C1(C)C (configuration not stated) | -205% | 16.4 µM [falling, partial curve] | 20.6 µM [falling, partial curve]
33 | COc1ccc(CCNC(=O)COC(=O)c2cc(S(=O)(=O)N3CCCC3)ccc2O)cc1 | 31.2% | 18.4 µM [rising, partial curve, poor fit] | 32.6 µM [rising, single point]
34 | CCN(CC)C(=O)COc1ccc(S(=O)(=O)N2CCOCC2)cc1 | 51.7% | 29.1 µM [rising, single point] | 29.1 µM [rising, single point]
35 | COc1ccc(F)cc1C(=O)C1CCCN(Cc2c(C)n(C)n(-c3ccccc3)c2=O)C1 (configuration not stated) | 34.8% |  | 20.6 µM [rising, partial curve, poor fit]
36 | Cc1oc(-c2ccccc2)nc1CC(=O)O | -26.1% | 0.461 µM [falling, partial curve] | 
37 | CCNC(=S)NS(=O)(=O)c1ccc(Cl)cc1 | 61.9% |  | 29.1 µM [rising, single point]
38 | O=C1NC(=O)C(Cc2c[nH]c3ccccc23)N1 (configuration not stated) | -10.5% |  | 
39 | CC(=O)N1CCN(C(=O)c2cc3ccccc3o2)CC1 | -0.451% | 29.1 µM [rising, partial curve] | 
40 | N#CCCn1cc(/C=C2\NC(=S)N(c3ccccc3)C2=O)c(-c2ccc(-c3ccccc3)cc2)n1 | -4% |  | 
41 | COCCn1c(CN2CCc3ccccc3C2)nc2c1c(=O)n(C)c(=O)n2C | -26.4% |  | 
42 | CC(C)C1COC(c2cccc3ccccc23)=N1 (configuration not stated) | -35.8% | 16.4 µM [rising, single point] | 29.1 µM [falling, single point]

Structural class: the compounds so far containing an NH in an aromatic ring.
Row | Structure (SMILES) | cell number change | AC50 [1] | AC50 [2]
26 | COC(=O)CCc1c(C)[nH]c(=S)[nH]c1=O | 31.8% |  | 0.00411 µM [rising, full curve, poor fit]
38 | O=C1NC(=O)C(Cc2c[nH]c3ccccc23)N1 (configuration not stated) | -10.5% |  | 

Further compounds:

Row | Structure (SMILES) | cell number change | AC50 [1] | AC50 [2]
43 | CCCCC1CCC(C(=O)N(CCCC)c2c(N)n(CCCC)c(=O)[nH]c2=O)CC1 (configuration not stated) | 1.4% | 23.1 µM [falling, partial curve, poor fit] | 
44 | O=[N+]([O-])c1ccc(Sc2nccn2Cc2ccccc2)c([N+](=O)[O-])c1 |  | 16.4 µM [falling, partial curve] | 0.13 µM [falling, full curve, poor fit]
45 | Cc1ccc(NC(=O)C2CC(=O)n3ncnc3N2)cc1C (configuration not stated) | 56% |  | 14.6 µM [rising, single point]
46 | COCCn1c(C(C)C)nc2sc3ccccc3c(=O)c2c1=O | 21.4% |  | 
47 | O=C(NC(O)C(=O)c1ccccc1)c1ccccn1 (configuration not stated) | 9.52% |  | 
48 | Cc1cc(C(=O)CSc2ccc3c(c2)OCCO3)c(C)n1C1CC1 | 36.6% | 1.46 µM [rising, partial curve, poor fit] | 8.2 µM [rising, partial curve]
49 | COc1ccc(NC(=O)C(C)NS(=O)(=O)c2ccccc2)cc1Cl (configuration not stated) |  | 0.82 µM [rising, single point] | 
50 | O=C1CCCN1c1nccs1 | 31.7% | 0.00517 µM [rising, full curve, poor fit] | 7.31 µM [falling, partial curve, poor fit]
51 | Cc1cc(C)nc(SCc2c(F)cccc2Cl)n1 | -1.59% | 0.00461 µM [rising, full curve, poor fit] | 
52 | COc1ccc(/C=C/C(=O)N2CCCc3ccccc32)c(OC)c1 | 2.99% |  | 
53 | COc1cccc(-c2cc(C(=O)NCCCn3ccnc3)c3ccccc3n2)c1 |  | 0.731 µM [rising, partial curve, poor fit] | 
54 | CC1Nc2ncnc(N3CCc4ccccc4C3)c2N(Cc2ccc(Br)cc2)C1=O (configuration not stated) | 18.1% | 29.1 µM [rising, single point] | 
55 | CCO[C@H]1OC(C(=O)Nc2ccccc2)=C[C@@H](c2ccc(Br)cc2)[C@@H]1CCCO | -17.3% | 0.146 µM [rising, full curve, poor fit] | 
56 | Cc1ccc(/C=C2\SC(=S)N(c3cccnc3)C2=O)cc1 | 11.1% |  | 
57 | Nc1nc(-c2ccco2)cs1 | 8.37% |  | 
58 | Cc1ccccc1NC(=O)CSCC(=O)Nc1ccccc1C |  | 0.103 µM [rising, full curve, poor fit] | 0.058 µM [rising, full curve, poor fit]
59 | Cc1cccc(NC(=O)CC2SC(=O)N(c3ccccc3)C2=O)c1 (configuration not stated) |  | 29.1 µM [falling, single point] | 
60 | CC(=O)c1ccc(N2CCN(S(=O)(=O)c3ccc4c(c3)NC(=O)CO4)CC2)cc1 | 22.4% |  | 
61 | Cc1cc2[nH]c(=O)c(=O)[nH]c2cc1S(=O)(=O)Nc1cccc(Cl)c1C | 5.48% | 8.2 µM [rising, partial curve, poor fit] | 0.116 µM [rising, partial curve, poor fit]
62 | O=C(NCc1ccccc1)C1CCN(S(=O)(=O)c2ccc(Cl)cc2)CC1 |  | 0.00461 µM [rising, full curve, poor fit] | 
63 | CCc1ccc(OCC(=O)c2c(O)c3ccccc3oc2=O)cc1 | 17.2% |  | 
